The values that follow come from paper PMC7943567.

By UniProt entry, the sequences of proteins in these tests, tags left out. Residues count along the entry.
UniProt P08581, residues 25-931: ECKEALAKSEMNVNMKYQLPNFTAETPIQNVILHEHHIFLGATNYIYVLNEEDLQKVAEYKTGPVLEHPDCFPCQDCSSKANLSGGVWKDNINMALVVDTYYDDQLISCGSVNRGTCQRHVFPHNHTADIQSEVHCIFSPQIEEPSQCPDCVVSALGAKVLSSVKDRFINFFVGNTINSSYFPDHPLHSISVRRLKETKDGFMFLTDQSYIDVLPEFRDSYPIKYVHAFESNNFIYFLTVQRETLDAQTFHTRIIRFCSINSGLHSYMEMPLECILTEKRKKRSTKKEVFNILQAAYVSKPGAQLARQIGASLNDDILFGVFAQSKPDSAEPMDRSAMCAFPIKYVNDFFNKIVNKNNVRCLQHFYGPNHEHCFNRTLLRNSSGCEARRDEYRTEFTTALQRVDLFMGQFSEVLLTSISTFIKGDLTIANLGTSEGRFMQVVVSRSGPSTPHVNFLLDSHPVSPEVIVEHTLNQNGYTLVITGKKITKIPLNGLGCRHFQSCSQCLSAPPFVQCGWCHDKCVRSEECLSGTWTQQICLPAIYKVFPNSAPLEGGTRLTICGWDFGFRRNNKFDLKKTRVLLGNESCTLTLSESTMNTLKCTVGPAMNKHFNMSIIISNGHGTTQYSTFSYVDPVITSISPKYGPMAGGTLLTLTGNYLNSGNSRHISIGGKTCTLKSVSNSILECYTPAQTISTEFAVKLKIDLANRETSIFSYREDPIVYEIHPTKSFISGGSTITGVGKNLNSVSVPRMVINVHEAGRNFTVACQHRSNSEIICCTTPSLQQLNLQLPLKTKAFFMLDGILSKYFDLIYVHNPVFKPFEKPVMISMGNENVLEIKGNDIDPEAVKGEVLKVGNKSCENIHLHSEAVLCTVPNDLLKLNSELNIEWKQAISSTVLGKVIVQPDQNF
UniProt P06731, residues 35-142: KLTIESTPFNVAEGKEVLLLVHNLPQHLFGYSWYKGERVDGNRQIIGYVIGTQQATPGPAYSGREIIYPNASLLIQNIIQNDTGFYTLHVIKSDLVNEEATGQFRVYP
UniProt P05187, residues 23-506: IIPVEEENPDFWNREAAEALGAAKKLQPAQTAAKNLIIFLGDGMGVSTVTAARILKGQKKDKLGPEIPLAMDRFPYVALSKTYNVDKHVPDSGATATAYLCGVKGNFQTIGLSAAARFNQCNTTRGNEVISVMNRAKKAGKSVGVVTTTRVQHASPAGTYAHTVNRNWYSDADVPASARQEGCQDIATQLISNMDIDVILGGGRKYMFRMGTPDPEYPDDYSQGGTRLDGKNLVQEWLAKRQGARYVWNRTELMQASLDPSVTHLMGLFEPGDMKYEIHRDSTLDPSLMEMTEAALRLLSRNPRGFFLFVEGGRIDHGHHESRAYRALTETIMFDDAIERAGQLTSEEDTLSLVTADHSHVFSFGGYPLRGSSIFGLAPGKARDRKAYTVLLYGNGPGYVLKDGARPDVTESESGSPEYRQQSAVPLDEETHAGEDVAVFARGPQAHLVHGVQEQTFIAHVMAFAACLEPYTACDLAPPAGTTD
UniProt P02768, residues 25-609: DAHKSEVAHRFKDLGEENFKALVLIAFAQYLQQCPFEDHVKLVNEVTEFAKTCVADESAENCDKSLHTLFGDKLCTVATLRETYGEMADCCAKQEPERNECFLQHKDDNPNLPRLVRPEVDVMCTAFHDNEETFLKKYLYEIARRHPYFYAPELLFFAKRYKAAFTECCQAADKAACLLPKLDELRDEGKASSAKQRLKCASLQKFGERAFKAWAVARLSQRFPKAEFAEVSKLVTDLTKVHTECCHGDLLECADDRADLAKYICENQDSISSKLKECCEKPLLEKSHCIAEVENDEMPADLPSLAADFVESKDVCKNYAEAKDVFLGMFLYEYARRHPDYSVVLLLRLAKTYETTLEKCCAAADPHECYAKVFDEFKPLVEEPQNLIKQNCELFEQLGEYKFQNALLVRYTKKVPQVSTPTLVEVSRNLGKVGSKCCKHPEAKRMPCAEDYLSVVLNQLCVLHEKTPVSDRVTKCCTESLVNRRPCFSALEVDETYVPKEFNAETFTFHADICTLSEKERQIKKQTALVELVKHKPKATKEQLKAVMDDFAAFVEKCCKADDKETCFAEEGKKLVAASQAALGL
UniProt P02751, residues 1539-1631: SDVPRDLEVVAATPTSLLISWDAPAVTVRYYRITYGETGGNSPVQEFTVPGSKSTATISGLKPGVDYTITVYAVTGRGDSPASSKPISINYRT
UniProt P01241, residues 27-217: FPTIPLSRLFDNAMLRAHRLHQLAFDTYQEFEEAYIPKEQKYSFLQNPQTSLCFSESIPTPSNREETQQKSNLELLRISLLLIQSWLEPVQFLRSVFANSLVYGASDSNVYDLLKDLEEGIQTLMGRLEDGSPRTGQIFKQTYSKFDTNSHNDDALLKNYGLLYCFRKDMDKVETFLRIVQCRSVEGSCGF
UniProt P78324, residues 31-148: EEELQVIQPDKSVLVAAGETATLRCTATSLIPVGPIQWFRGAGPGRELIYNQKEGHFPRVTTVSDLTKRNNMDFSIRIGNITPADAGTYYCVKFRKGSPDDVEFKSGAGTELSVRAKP

The target of experiment [1] is T1, soluble ectodomain fragment of human PlxnB1 (residues 1-535), tagged, captured on beads (human) (UniProt O43157).
T1 sequence: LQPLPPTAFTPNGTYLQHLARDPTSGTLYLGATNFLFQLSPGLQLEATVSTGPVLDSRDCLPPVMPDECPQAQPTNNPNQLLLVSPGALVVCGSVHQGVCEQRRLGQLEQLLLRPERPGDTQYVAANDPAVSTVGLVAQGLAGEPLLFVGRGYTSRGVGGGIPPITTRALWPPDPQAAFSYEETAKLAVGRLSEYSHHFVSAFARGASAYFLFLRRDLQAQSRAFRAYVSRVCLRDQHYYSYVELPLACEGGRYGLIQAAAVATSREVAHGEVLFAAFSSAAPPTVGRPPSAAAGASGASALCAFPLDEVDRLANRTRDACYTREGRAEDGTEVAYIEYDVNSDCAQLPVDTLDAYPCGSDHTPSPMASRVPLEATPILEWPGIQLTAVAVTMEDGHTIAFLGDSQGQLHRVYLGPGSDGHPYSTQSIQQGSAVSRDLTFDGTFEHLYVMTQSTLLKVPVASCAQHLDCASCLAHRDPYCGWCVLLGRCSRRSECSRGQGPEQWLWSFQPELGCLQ
In words: pull-down; tagged PlxnB1(1-535) or MET(1-931) ectodomain captured on Protein A, NZ-1 or PMab-1 beads, incubated with culture supernatants containing the grafted or control proteins; eluted with SDS buffer, Coomassie-stained SDS-PAGE; only the target purified.

In experiment [2] the target is soluble ectodomain fragment of human MET (residues 1-931), tagged, captured on beads (human) (UniProt P08581). The description is as above.

No constants are given. Whether binding was seen depends on the method and setting. Binding seen in cells or lysates may run through a third protein. For some assays here: Tags and fused reporters may be left off the sequences shown.

As to “CEA-Fc, non-grafted control (from UniProt P06731 35-142) (Fc fusion)”, the binding entry in experiment [1] and in experiment [2] was “no binding” each time.
With “placental alkaline phosphatase, non-grafted control (from UniProt P05187 23-506) (enzyme)”, the binding result in experiment [1] and in experiment [2] was “no binding” each time.
Consider “human serum albumin, non-grafted control (from UniProt P02768 25-609)”, for which the binding result in experiment [1] and in experiment [2] was “no binding” each time.
For “Fn10-Fc, non-grafted control (from UniProt P02751-15 1539-1631) (Fc fusion)”, the binding result in experiment [1] and in experiment [2] was “no binding” each time.
Take “human growth hormone, non-grafted control (from UniProt P01241 27-217)”: the binding entry in experiment [1] and in experiment [2] was “no binding” throughout.
For the substance “human IgG1 Fc, non-grafted control (from UniProt P01857 104-330) (domain or fragment)”, the binding result in experiment [1] and in experiment [2] was “no binding” throughout.
On to “SIRPα-Fc, non-grafted control (from UniProt P78324 31-148) (Fc fusion)”, for which the binding entry in experiment [1] and in experiment [2] was “no binding” throughout.
